Data: US20250079000A1, “METHODS AND MARKERS FOR DIAGNOSIS OF PARKINSON'S DISEASE” (Berg LLC, priority 2021, published 2025)

Assay: Box plots of biomarker level in plasma, PD vs control
Set-up: species or system human
Conditions: all subjects, male subjects only and female subjects only

Row | Structure (SMILES) | Biomarker level in PD vs. control samples
1 | CCCCC(=O)C(=O)O [2-ketohexanoic acid] | decreased
2 | CC(=O)NCCCCN [NAP, N-acetyl putrescine] | increased
